Results are given in words; binding and its absence hold for the method and conditions named. In cells and extracts the contact can be indirect. Binding can be weak; no strength is given.
T1: P120 catenin isoform p120-1 (mouse (endogenous in 4T1)) (UniProt P30999)
T1 sequence: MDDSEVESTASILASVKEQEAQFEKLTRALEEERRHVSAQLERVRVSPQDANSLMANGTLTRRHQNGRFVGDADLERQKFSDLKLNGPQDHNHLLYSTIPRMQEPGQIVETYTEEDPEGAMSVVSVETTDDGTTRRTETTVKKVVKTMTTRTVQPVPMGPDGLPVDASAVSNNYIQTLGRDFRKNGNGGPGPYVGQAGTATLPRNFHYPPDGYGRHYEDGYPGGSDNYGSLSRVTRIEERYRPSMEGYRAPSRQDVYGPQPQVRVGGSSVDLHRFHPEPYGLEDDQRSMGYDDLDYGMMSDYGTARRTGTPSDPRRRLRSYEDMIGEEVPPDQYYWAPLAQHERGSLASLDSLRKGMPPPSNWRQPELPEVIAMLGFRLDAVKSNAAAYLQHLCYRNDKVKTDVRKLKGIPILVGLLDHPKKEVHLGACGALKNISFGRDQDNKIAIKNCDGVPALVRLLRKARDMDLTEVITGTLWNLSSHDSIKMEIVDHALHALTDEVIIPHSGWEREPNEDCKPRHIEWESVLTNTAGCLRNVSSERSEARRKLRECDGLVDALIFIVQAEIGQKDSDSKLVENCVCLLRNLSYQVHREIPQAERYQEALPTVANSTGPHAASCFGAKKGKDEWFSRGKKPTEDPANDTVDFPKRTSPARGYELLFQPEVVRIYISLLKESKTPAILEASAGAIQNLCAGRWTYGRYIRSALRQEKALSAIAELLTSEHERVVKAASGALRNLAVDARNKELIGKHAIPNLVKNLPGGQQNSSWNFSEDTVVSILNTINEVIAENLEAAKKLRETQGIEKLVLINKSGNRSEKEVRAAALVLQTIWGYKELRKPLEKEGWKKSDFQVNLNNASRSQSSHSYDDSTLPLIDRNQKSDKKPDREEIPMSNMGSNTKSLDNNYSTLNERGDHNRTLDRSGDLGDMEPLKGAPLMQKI


What was measured:
[1] = target: T1, P120 catenin isoform p120-1 (mouse (endogenous in 4T1)); experiment: co-IP; confluent 4T1 (Figure 2B) and NMuMG (Figure S2C) cells lysed in 125 mM NaCl, 20 mM Hepes pH 7.4, 1% Nonidet P40 substitute; precipitated with p120 isoform-specific antibodies (6H11 mAb for p120-1, anti-p120-3 pAb) and Sepharose-Protein G at 4 °C; Western blot
[2] = target: E-cadherin (mouse (endogenous in 4T1)); experiment: co-IP; reciprocal: lysate precipitated with an antibody against E-cadherin, p120 isoforms detected by Western blot (Figure S2D,E); cell line not given

Row | Molecule | binding [1] | binding [2]
1 | E-cadherin (mouse (endogenous in 4T1)) | binds | 
2 | P120 catenin isoform p120-1 (protein, UniProt P30999 1-938) MDDSEVESTASILASVKEQEAQFEKLTRALEEERRHVSAQLERVRVSPQDANSLMANGTLTRRHQNGRFVGDADLERQKFSDLKLNGPQDHNHLLYSTIPRMQEPGQIVETYTEEDPEGAMSVVSVETTDDGTTRRTETTVKKVVKTMTTRTVQPVPMGPDGLPVDASAVSNNYIQTLGRDFRKNGNGGPGPYVGQAGTATLPRNFHYPPDGYGRHYEDGYPGGSDNYGSLSRVTRIEERYRPSMEGYRAPSRQDVYGPQPQVRVGGSSVDLHRFHPEPYGLEDDQRSMGYDDLDYGMMSDYGTARRTGTPSDPRRRLRSYEDMIGEEVPPDQYYWAPLAQHERGSLASLDSLRKGMPPPSNWRQPELPEVIAMLGFRLDAVKSNAAAYLQHLCYRNDKVKTDVRKLKGIPILVGLLDHPKKEVHLGACGALKNISFGRDQDNKIAIKNCDGVPALVRLLRKARDMDLTEVITGTLWNLSSHDSIKMEIVDHALHALTDEVIIPHSGWEREPNEDCKPRHIEWESVLTNTAGCLRNVSSERSEARRKLRECDGLVDALIFIVQAEIGQKDSDSKLVENCVCLLRNLSYQVHREIPQAERYQEALPTVANSTGPHAASCFGAKKGKDEWFSRGKKPTEDPANDTVDFPKRTSPARGYELLFQPEVVRIYISLLKESKTPAILEASAGAIQNLCAGRWTYGRYIRSALRQEKALSAIAELLTSEHERVVKAASGALRNLAVDARNKELIGKHAIPNLVKNLPGGQQNSSWNFSEDTVVSILNTINEVIAENLEAAKKLRETQGIEKLVLINKSGNRSEKEVRAAALVLQTIWGYKELRKPLEKEGWKKSDFQVNLNNASRSQSSHSYDDSTLPLIDRNQKSDKKPDREEIPMSNMGSNTKSLDNNYSTLNERGDHNRTLDRSGDLGDMEPLKGAPLMQKI |  | binds

Reference: article PMC6826419
